Assay results reported in patent US6146842A, “High-throughput screening assays utilizing metal-chelate capture” (Mitotix, Inc., priority 1999, dated 2000).

System: histidine tagged peptide - nickel FlashPlate binding
Assay: Tolerance of nickel FlashPlates to common assay reagents (binding of histidine tagged peptide to nickel FlashPlate)
[1] = maximal concentration which did not interfere with binding of the histidine tagged peptide to the FlashPlate

Molecule	Maximum concentration tolerated in assay [1]	Maximum concentration tolerated in assay (maximal concentration of DTT which did not interfere with binding to the FlashPlate)	final assay concentration that did not interfere with histidine-nickel interaction and was suitable for assay of transferase activity (final assay concentration in the reaction phase)
Tween-20	1%	–	–
Triton-X-100	1%	–	–
O[C@H](CS)[C@H](O)CS (racemic) [DTT, dithiothreitol]	–	1 mM	–
NP 40	1%	–	–
CO [MeOH]	< 25%	–	–
C[S+](C)[O-] [DMSO, dimethylsulfoxide]	10%	–	10%
CCO [EtOH]	< 25%	–	–
